PubChem BioAssay AID1053208, Peter MacCallum Cancer Centre – 2014
Aim: 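Genes whose silencing cuts survival of bone tumour cells only with doxorubicin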 (primary screen). Cell system: mouse osteosarcoma cells, early-passage culture from an engineered mouse model of fibroblastic bone tumour. Reagents: siRNA pool against mouse genes, 40 nM. Timing: about 120 h (48 h before drug, then 72 h with drug). Conditions: doxorubicin 100 nM for 72 h, roughly 30-40% inhibitory dose. Measured: 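Viability read as ATP luminescence after 72 h of 100 nM doxorubicin or none, duplicate wells averaged, scaled to non-targeting siRNA, then expressed as robust z-scores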. Reading the numbers: viability z-score with doxorubicin: higher = more viable cells under doxorubicin; viability z-score without drug: higher = more viable cells with knock-down alone. Rule for the call: 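a pool counts as active when its viability z-score with doxorubicin is -2 or below and its z-score without drug lies between -2 and 2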.
In all, the deposit lists about 17,000 reagents; below is a part drawn at random. 788 of all reagents (4.7%) were called active. 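Calls rest on z-score classes alone; an extra cut-off of viability at most 70% of control was not applied to them.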 A number with no mark means an inactive call. Some reagents were tested in more than one well and are listed for each. Not all columns of the deposit are shown.

Etv6 | combined z-score class: no change with or without drug; viability z-score with doxorubicin: -0.34; viability z-score without drug: -1.01
Ccser1 | combined z-score class: high cell count with doxorubicin only; viability z-score with doxorubicin: 2.36; viability z-score without drug: 1.52
Ntn1 | combined z-score class: no change with or without drug; viability z-score with doxorubicin: 0.34; viability z-score without drug: -0.84
Srcin1 | combined z-score class: low cell count with doxorubicin only (active); viability z-score with doxorubicin: -2.14; viability z-score without drug: -0.51
Evx1 | combined z-score class: no change with or without drug; viability z-score with doxorubicin: 0; viability z-score without drug: 1.52
Relb | combined z-score class: low cell count with doxorubicin only (active); viability z-score with doxorubicin: -2.02; viability z-score without drug: -1.52
Jag2 | combined z-score class: no change with or without drug; viability z-score with doxorubicin: -0.9; viability z-score without drug: 0.17
Slc67a1 | combined z-score class: no change with or without drug; viability z-score with doxorubicin: 0; viability z-score without drug: -0.51
Peli1 | combined z-score class: low cell count with doxorubicin only (active); viability z-score with doxorubicin: -3.15; viability z-score without drug: -1.52
Limk1 | combined z-score class: no change with or without drug; viability z-score with doxorubicin: -0.22; viability z-score without drug: -0.51
Rbl1 | combined z-score class: no change with or without drug; viability z-score with doxorubicin: 0.56; viability z-score without drug: 0.17
Smim10l2a | combined z-score class: low cell count without drug only; viability z-score with doxorubicin: 1.12; viability z-score without drug: -2.87
Arhgap39 | combined z-score class: no change with or without drug; viability z-score with doxorubicin: 0; viability z-score without drug: -0.84
Ccl12 | combined z-score class: no change with or without drug; viability z-score with doxorubicin: 0.34; viability z-score without drug: -1.18
Ccl12 | combined z-score class: no change with or without drug; viability z-score with doxorubicin: 0; viability z-score without drug: -0.84
Erh | combined z-score class: low cell count with doxorubicin only (active); viability z-score with doxorubicin: -2.59; viability z-score without drug: -0.51
Abcg1 | combined z-score class: no change with or without drug; viability z-score with doxorubicin: -0.67; viability z-score without drug: -1.35
Cdc25a | combined z-score class: no change with or without drug; viability z-score with doxorubicin: 0.9; viability z-score without drug: 0.17
Ndufs7 | combined z-score class: low cell count without drug only; viability z-score with doxorubicin: -1.57; viability z-score without drug: -2.19
Rilpl1 | combined z-score class: no change with or without drug; viability z-score with doxorubicin: 0.34; viability z-score without drug: 0.17
Ufsp1 | combined z-score class: no change with or without drug; viability z-score with doxorubicin: 0.22; viability z-score without drug: 0.51
Fgf18 | combined z-score class: no change with or without drug; viability z-score with doxorubicin: -0.67; viability z-score without drug: -0.51
Ffar2 | combined z-score class: no change with or without drug; viability z-score with doxorubicin: -1.12; viability z-score without drug: 1.52
Nanos3 | combined z-score class: no change with or without drug; viability z-score with doxorubicin: 1.35; viability z-score without drug: 1.69
Ahcyl1 | combined z-score class: no change with or without drug; viability z-score with doxorubicin: 0.11; viability z-score without drug: 0.84
Rrp1 | combined z-score class: low cell count without drug only; viability z-score with doxorubicin: -1.24; viability z-score without drug: -2.53
Or2j3 | combined z-score class: no change with or without drug; viability z-score with doxorubicin: -1.35; viability z-score without drug: -0.51
Hrk | combined z-score class: high cell count without drug only; viability z-score with doxorubicin: 0.67; viability z-score without drug: 2.36
Or5p80 | combined z-score class: no change with or without drug; viability z-score with doxorubicin: 1.46; viability z-score without drug: 0.51
Aldh1a3 | combined z-score class: no change with or without drug; viability z-score with doxorubicin: -1.12; viability z-score without drug: 0
Or52n2b | combined z-score class: no change with or without drug; viability z-score with doxorubicin: 0; viability z-score without drug: 0.17
Tlx2 | combined z-score class: no change with or without drug; viability z-score with doxorubicin: -0.45; viability z-score without drug: 1.01
BC005624 | combined z-score class: no change with or without drug; viability z-score with doxorubicin: -0.67; viability z-score without drug: -0.51
Gmpr2 | combined z-score class: no change with or without drug; viability z-score with doxorubicin: 0; viability z-score without drug: -0.17
Ywhaz | combined z-score class: no change with or without drug; viability z-score with doxorubicin: -1.24; viability z-score without drug: 0.34
Cdc27 | combined z-score class: low cell count with doxorubicin only (active); viability z-score with doxorubicin: -2.7; viability z-score without drug: -1.18
